Taken from: PubChem BioAssay AID1259276 (Sanger Institute, 2017)
Aim: 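Find kinases whose silencing cuts viability alone or combined with BYL719, cetuximab or trametinib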 (primary screen). System: human C2BBe1 colorectal cancer cells. Knock-down reagent: siRNA pool against human genes. Treatment: DMSO vehicle, or one anchor drug: BYL719 at 1 µM, cetuximab at 5 µg/ml, or trametinib at 10 nM; exposure length not stated. Read-out: 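Viability after knock-down relative to non-targeting siRNA controls, averaged across replicates, given as ratio and control-derived robust z-score, with per-drug synergy scores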. Reading the numbers: viability robust z-score, siRNA alone and viability vs control, siRNA alone: higher = more viable cells after knock-down. Hit rule: 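a siRNA pool tested without drug is essential if its viability robust z-score falls under -3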. Meaning of the calls: active = essential (siRNA alone); inactive = no change (siRNA alone).
This is a random part of 794 reagents. 24 of all reagents (3%) count as active. 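Calls come only from the siRNA-alone arm; drug synergy scores do not affect them.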 Viability is capped at 1. Not all columns of the deposit are shown. The record does not give: the amount of reagent, the time to read-out.

Against ITSN1 the deposit lists viability robust z-score, siRNA alone 0.472; viability vs control, siRNA alone 1; inactive.
Depletion of STK35 resulted in: viability robust z-score, siRNA alone 0.472; viability vs control, siRNA alone 1; inactive.
Depletion of NF1 came out at: viability robust z-score, siRNA alone 0.472; viability vs control, siRNA alone 1; inactive.
Against PRKAR2B, the entry reads viability robust z-score, siRNA alone 0.472; viability vs control, siRNA alone 1; inactive.
For PIK3CG the deposit lists viability robust z-score, siRNA alone -1.78; viability vs control, siRNA alone 0.858; inactive.
Knock-down of PINK1 gave: viability robust z-score, siRNA alone 0.472; viability vs control, siRNA alone 1; inactive.
Knock-down of SRPK3 gave: viability robust z-score, siRNA alone 0.472; viability vs control, siRNA alone 1; inactive.
LRRK1 showed viability robust z-score, siRNA alone 0.472; viability vs control, siRNA alone 1; inactive.
SHPK scored viability robust z-score, siRNA alone 0.472; viability vs control, siRNA alone 1; inactive.
After knock-down of PI4KA, the screen gave viability robust z-score, siRNA alone 0.472; viability vs control, siRNA alone 1; inactive.
With knock-down of MAPK11, the screen gave viability robust z-score, siRNA alone 0.472; viability vs control, siRNA alone 1; inactive.
For SMC1A, the entry reads viability robust z-score, siRNA alone 0.472; viability vs control, siRNA alone 1; inactive.
Knock-down of GUK1 gave: viability robust z-score, siRNA alone 0.472; viability vs control, siRNA alone 1; inactive.
After knock-down of MATK the results were viability robust z-score, siRNA alone 0.472; viability vs control, siRNA alone 1; inactive.
Against STK33, the values are viability robust z-score, siRNA alone -1.59; viability vs control, siRNA alone 0.87; inactive.
CSNK1G1 scored viability robust z-score, siRNA alone 0.472; viability vs control, siRNA alone 1; inactive.
DYRK2 showed viability robust z-score, siRNA alone -1.25; viability vs control, siRNA alone 0.892; inactive.

Records above whose target name starts with M or m (2):
MAPK11 | viability robust z-score, siRNA alone: 0.472; viability vs control, siRNA alone: 1; activity call: inactive
MATK | viability robust z-score, siRNA alone: 0.472; viability vs control, siRNA alone: 1; activity call: inactive

Additional entries follow:
With knock-down of ITPKA, the screen gave viability robust z-score, siRNA alone 0.472; viability vs control, siRNA alone 1; inactive.
EIF2AK2 gave viability robust z-score, siRNA alone 0.472; viability vs control, siRNA alone 1; inactive.
Against BMPR2 the deposit lists viability robust z-score, siRNA alone -1.69; viability vs control, siRNA alone 0.864; inactive.
With knock-down of BRWD1, the record shows viability robust z-score, siRNA alone 0.472; viability vs control, siRNA alone 1; inactive.
After knock-down of NME5, the screen gave viability robust z-score, siRNA alone 0.472; viability vs control, siRNA alone 1; inactive.
For FGFRL1, the values are viability robust z-score, siRNA alone 0.472; viability vs control, siRNA alone 1; inactive.
Knock-down of CLSPN resulted in: viability robust z-score, siRNA alone -4.75; viability vs control, siRNA alone 0.671; active.
After knock-down of PIK3R5, the record shows viability robust z-score, siRNA alone 0.472; viability vs control, siRNA alone 1; inactive.
With knock-down of CDK17 the results were viability robust z-score, siRNA alone 0.00626; viability vs control, siRNA alone 0.971; inactive.
Silencing of IKBKE gave: viability robust z-score, siRNA alone 0.472; viability vs control, siRNA alone 1; inactive.
PRKCD gave viability robust z-score, siRNA alone 0.472; viability vs control, siRNA alone 1; inactive.
EFNA3 showed viability robust z-score, siRNA alone 0.346; viability vs control, siRNA alone 0.992; inactive.
For FXN the deposit lists viability robust z-score, siRNA alone 0.472; viability vs control, siRNA alone 1; inactive.
With knock-down of LATS1 the results were viability robust z-score, siRNA alone 0.472; viability vs control, siRNA alone 1; inactive.
Against STK24, the entry reads viability robust z-score, siRNA alone -2.57; viability vs control, siRNA alone 0.808; inactive.
Against MYLK4, the values are viability robust z-score, siRNA alone 0.472; viability vs control, siRNA alone 1; inactive.
Knock-down of STK32C gave: viability robust z-score, siRNA alone 0.305; viability vs control, siRNA alone 0.989; inactive.
For ERBB3, the entry reads viability robust z-score, siRNA alone 0.472; viability vs control, siRNA alone 1; inactive.
Depletion of HUNK resulted in: viability robust z-score, siRNA alone 0.472; viability vs control, siRNA alone 1; inactive.
